Measured values as given in the supplement of paper PMC10849652.
The other results are listed elsewhere or left out. Residues, ends and D or L forms follow the SMILES beside them. *: point of attachment. Cbz = O=C(OCc1ccccc1)*

By UniProt entry, the sequences of proteins in these tests, tags left out. Where a name states a change or a piece, a line headed by the entry shows the natural chain unless it says otherwise.
UniProt Q9Y6B6: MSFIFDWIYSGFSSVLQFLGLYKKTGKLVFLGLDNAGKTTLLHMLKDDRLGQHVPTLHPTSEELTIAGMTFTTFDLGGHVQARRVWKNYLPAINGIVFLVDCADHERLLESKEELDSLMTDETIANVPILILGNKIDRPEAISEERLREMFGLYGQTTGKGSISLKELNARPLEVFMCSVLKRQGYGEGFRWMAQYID
UniProt P67812: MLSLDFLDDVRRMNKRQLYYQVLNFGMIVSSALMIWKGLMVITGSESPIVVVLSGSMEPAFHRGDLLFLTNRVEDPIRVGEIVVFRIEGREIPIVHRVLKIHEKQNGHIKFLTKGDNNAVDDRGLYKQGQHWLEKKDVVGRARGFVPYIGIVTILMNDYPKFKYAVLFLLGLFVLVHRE
UniProt P31040: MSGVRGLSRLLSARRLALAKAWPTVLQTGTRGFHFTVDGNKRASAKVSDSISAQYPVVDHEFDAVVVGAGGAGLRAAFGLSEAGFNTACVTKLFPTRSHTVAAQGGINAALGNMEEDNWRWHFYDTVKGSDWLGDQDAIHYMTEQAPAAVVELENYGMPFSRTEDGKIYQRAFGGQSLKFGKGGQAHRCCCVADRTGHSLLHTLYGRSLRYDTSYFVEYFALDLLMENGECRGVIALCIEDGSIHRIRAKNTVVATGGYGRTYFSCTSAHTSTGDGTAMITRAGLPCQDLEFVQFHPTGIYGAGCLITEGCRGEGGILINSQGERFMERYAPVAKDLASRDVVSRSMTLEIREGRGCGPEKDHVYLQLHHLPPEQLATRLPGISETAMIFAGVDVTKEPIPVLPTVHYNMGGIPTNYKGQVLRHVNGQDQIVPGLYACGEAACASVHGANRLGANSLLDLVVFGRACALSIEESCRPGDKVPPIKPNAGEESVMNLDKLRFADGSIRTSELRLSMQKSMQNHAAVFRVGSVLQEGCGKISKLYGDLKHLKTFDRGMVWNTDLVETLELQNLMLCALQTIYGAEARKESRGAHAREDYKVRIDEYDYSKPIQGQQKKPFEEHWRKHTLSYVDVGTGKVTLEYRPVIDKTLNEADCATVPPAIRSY
UniProt Q9Y224: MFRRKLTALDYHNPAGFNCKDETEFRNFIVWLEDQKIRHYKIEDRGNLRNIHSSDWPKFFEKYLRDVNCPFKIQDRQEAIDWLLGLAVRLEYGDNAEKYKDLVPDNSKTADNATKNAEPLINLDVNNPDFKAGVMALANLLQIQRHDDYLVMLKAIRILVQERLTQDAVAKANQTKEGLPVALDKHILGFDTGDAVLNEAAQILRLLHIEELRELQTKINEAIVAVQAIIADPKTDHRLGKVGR
UniProt Q14108: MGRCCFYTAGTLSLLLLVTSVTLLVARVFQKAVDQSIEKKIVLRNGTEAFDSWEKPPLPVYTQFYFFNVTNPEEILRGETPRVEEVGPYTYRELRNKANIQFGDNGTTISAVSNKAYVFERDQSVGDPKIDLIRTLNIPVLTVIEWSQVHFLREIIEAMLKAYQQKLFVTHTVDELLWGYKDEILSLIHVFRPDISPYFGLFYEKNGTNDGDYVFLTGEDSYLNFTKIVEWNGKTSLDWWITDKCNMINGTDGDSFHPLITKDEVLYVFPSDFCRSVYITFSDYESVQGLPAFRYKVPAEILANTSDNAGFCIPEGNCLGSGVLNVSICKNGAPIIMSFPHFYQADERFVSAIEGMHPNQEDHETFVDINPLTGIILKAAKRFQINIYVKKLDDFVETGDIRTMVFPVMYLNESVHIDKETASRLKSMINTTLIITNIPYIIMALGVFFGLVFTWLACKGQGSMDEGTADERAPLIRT
UniProt Q969E2: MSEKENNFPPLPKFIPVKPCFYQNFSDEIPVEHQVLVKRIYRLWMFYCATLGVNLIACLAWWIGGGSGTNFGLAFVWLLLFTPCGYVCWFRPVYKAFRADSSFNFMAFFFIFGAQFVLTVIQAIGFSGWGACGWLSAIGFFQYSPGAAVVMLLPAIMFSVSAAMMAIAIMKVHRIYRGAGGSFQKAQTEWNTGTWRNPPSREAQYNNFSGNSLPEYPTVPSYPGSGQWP
UniProt O43290: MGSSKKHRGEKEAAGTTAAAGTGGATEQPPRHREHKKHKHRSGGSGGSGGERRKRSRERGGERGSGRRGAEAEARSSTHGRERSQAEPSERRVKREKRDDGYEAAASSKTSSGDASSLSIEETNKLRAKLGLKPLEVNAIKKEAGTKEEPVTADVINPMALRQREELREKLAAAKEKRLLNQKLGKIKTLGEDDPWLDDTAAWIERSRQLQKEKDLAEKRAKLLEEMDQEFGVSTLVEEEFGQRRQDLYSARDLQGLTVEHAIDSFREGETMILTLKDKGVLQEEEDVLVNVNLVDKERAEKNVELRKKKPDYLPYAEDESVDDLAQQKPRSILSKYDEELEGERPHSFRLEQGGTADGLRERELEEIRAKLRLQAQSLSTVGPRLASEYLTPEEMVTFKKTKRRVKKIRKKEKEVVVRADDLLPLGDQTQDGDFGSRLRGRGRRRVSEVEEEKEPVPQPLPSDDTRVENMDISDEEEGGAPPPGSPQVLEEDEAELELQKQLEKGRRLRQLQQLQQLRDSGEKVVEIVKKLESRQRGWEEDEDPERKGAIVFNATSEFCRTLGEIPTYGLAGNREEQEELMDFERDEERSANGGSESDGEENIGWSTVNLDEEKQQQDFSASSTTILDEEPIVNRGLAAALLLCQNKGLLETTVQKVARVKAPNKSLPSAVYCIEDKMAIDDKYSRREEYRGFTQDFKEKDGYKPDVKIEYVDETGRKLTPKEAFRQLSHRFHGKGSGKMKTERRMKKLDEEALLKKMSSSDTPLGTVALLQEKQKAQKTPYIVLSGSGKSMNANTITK
UniProt Q9Y230, whole entry, looked up: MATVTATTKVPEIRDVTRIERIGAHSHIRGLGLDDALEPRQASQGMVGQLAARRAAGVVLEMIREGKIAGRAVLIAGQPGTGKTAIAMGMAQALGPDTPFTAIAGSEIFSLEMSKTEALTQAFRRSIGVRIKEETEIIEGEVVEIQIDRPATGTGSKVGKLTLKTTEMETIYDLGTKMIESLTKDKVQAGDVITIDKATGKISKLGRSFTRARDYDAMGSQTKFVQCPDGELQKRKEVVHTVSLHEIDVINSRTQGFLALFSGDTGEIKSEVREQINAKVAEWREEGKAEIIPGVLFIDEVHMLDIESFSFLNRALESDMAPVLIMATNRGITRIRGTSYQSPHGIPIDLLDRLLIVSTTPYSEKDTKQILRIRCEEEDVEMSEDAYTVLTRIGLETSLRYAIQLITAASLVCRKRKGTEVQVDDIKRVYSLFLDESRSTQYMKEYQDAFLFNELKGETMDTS
UniProt O75396: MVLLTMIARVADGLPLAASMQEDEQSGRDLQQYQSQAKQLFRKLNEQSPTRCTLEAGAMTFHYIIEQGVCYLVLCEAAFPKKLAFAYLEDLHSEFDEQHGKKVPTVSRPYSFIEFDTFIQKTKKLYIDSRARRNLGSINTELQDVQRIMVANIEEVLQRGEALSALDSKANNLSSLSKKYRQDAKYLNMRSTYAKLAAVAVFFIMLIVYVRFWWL
UniProt O00442: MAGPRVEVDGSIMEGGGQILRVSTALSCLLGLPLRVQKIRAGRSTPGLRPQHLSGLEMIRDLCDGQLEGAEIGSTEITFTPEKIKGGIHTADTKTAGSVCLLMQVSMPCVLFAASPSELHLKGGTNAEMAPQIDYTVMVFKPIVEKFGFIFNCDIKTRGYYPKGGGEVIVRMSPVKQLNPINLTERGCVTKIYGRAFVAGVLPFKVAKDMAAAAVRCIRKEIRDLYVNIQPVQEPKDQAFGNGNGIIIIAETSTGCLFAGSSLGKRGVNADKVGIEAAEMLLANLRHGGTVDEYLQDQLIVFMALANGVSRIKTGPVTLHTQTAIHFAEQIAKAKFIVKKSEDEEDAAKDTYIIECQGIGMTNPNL
UniProt Q5VWQ0: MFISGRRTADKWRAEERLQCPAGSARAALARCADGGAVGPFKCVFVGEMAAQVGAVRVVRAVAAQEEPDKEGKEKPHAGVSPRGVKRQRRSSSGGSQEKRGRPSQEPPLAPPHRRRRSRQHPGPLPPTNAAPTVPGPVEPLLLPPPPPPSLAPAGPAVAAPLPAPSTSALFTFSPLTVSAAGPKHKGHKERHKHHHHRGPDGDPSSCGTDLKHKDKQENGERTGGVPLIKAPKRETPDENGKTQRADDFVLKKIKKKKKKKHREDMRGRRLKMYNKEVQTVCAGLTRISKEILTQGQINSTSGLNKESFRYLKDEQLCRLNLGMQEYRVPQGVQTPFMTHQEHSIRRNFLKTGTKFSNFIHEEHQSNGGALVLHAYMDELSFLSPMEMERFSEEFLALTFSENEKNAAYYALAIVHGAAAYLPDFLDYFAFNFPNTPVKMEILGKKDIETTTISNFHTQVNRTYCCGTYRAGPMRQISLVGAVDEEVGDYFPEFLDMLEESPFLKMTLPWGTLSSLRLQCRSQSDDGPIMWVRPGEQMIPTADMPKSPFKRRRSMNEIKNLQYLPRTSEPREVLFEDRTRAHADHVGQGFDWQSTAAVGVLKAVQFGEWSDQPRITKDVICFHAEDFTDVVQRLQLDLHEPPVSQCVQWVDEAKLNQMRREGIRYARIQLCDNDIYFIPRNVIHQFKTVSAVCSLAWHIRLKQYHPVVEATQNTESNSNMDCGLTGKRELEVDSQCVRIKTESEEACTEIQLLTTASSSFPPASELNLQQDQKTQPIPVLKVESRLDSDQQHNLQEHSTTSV
UniProt P82979: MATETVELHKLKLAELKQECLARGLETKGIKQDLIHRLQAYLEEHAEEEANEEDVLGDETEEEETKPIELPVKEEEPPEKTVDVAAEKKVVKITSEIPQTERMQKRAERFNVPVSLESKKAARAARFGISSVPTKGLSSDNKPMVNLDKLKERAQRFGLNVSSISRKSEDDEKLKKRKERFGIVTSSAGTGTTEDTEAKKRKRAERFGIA
UniProt P22307: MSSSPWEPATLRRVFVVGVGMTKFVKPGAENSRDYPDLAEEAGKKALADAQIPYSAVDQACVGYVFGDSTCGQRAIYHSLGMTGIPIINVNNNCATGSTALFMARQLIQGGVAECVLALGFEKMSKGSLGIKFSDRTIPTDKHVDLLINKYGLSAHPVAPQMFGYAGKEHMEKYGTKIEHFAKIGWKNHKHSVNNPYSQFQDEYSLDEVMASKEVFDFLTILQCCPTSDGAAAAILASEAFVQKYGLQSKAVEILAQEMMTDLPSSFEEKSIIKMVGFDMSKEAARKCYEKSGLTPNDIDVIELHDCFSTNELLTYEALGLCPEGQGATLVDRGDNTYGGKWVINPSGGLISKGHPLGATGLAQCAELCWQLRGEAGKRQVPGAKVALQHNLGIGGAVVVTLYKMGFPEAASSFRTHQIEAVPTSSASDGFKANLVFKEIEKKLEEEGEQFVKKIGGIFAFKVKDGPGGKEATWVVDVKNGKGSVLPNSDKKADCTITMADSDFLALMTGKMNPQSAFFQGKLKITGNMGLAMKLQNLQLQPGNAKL
UniProt Q8WTV0: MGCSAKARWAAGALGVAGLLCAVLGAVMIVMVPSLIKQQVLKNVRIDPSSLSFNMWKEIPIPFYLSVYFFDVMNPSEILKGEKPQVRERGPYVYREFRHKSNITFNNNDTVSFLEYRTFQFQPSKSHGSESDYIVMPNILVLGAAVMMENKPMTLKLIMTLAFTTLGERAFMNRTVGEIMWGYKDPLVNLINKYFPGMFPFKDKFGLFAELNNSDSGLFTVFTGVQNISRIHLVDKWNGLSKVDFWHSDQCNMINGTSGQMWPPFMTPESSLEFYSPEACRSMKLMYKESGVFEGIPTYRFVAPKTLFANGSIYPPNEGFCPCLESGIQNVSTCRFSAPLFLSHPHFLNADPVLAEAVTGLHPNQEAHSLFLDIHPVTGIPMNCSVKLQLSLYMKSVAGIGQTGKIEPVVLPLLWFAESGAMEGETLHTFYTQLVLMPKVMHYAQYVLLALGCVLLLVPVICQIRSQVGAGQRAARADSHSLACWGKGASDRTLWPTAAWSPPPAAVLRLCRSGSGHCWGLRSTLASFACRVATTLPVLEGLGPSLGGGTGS

Key:
Assay in all cases: log2 fold change, soluble protein after heating vs DMSO (PISA); higher = thermal stabilisation; K562 cells, 10 uM, 30 min; active = over 0.2 and 3.5 SD of the protein, either way, in both replicates (recomputed)
erlotinib = compound: C#Cc1cccc(Nc2ncnc3cc(OCCOC)c(OCCOC)cc23)c1 [erlotinib]
How it was run: (§1)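 K562 cells at 2×10^6 cells/mL were exposed to 10 μM compound for 30 min, then aliquots were heated for 3 min across 48°C-58°C, pooled, and extracted in PBS containing 0.5% NP-40 at 4°C. The supernatant after 21,000xg for 90 min was taken as soluble protein and measured by TMTpro 16plex LC-MS/MS with channel sums equalised. Thermal stability is reported relative to control samples, with values from duplicates. Fold changes are given on a log2 scale.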

[1] = compound: C/C(=N\NC(=O)C1=CC(=CC=C1)S(=O)(=O)N2CCOCC2)/C3=C(C=CC(=C3)Cl)O
How it was run: as §1

[2] = compound: C1=CC(=C(C=C1Cl)C2=NC3=NC=CN=C3C(=N2)NC4=CC=NC=C4)F
How it was run: as §1

[3] = compound: C1=CC(=CC=C1C2=NC3=C(N2)C=C(C=C3)C(=O)N)OC4=CC=C(C=C4)Cl
How it was run: as §1

[4] = compound: C1=CC2=C(C=CC(=C2)/C=C\3/C(=O)NC(=NCC4=CC=CS4)S3)N=C1
How it was run: as §1

[5] = compound: C1=CC2=NC=CN=C2C=C1/C=C/3\C(=O)NC(=O)S3
How it was run: as §1

[6] = compound: C1=CC=C(C=C1)C2=NC(=C(N2)C3=CC=NC=C3)C4=CC(=C(C=C4)Cl)O
How it was run: as §1

[7] = compound: C1=CC=C2C(=C1)C3=NNC4=CC=CC(=C43)C2=O
How it was run: as §1

[8] = compound: C1CCN(C1)C(=O)NC2=CC=CC(=C2)NC3=NC=C(C(=N3)NCCC4=CN=CN4)Br
How it was run: as §1

[9] = compound: C1CN(CCC1(CC2=CC=C(C=C2)Cl)N)C3=NC=NC4=C3C=CN4
How it was run: as §1

IRAK-1-4 Inhibitor I = compound: C1COCCN1CCN2C3=CC=CC=C3N=C2NC(=O)C4=CC(=CC=C4)[N+](=O)[O-] [IRAK-1-4 Inhibitor I]
How it was run: as §1

ibrutinib = compound: C=CC(=O)N1CCC[C@@H](n2nc(-c3ccc(Oc4ccccc4)cc3)c3c(N)ncnc32)C1 [ibrutinib]
How it was run: as §1

[10] = compound: CC(=O)c1cnc2ccc(-c3cc(Cl)c(O)c(Cl)c3)nc2c1N[C@H]1CC[C@H](CN(C)C)CC1
How it was run: as §1

ralimetinib = compound: CC(C)(C)Cn1c(N)nc2ccc(-c3[nH]c(C(C)(C)C)nc3-c3ccc(F)cc3)nc21 [ralimetinib]
How it was run: as §1

[11] = compound: CC(C)(O)CC(=O)NCCn1ccc2ncnc(Nc3ccc(Oc4cccc(C(F)(F)F)c4)c(Cl)c3)c21
How it was run: as §1

[12] = compound: CC(C)C1=C2N=C(C=C(N2N=C1)NCC3=CC=CC=C3)NCCCCCCN
How it was run: as §1

[13] = compound: CC(C)C[C@@H](C=O)NC(=O)[C@H](CC(C)C)NC(=O)[C@H](CC(C)C)NC(=O)OCc1ccccc1
How it was run: as §1

pinometostat = compound: CC(C)N(C[C@H]1O[C@@H](n2cnc3c(N)ncnc32)[C@H](O)[C@@H]1O)[C@H]1C[C@@H](CCc2nc3cc(C(C)(C)C)ccc3[nH]2)C1 [pinometostat]
How it was run: as §1

[14] = compound: CC1=C(C(CC(=O)N1)C2=CC=C(C=C2)C(F)(F)F)C(=O)NC3=C(C=C4C(=C3)C=NN4)F
How it was run: as §1

[15] = compound: CC1=C(C2=C(C=C1)C(=O)C3=CC=CC=C3N2CCCN)C
How it was run: as §1

Measured: log2 fold change

SAR1B (UniProt Q9Y6B6)
inactive: erlotinib -0.035 | [1] 0.009 | [2] 0.098 | [3] -0.011 | [4] 0.004 | [5] 0.005 | [6] -0.015 | [7] 0.018 | [8] -0.013 | [9] -0.005 | IRAK-1-4 Inhibitor I 0.012 | ibrutinib 0.006 | [10] -0.031 | ralimetinib -0.077 | [11] -0.065 | [12] 0.029 | [13] -0.03 | pinometostat -0.033 | [14] -0.092 | [15] 0.162

SEC11A isoform 3 (UniProt P67812)
inactive: erlotinib -0.057 | [1] 0.019 | [2] 0.051 | [3] -0.021 | [4] -0.006 | [5] 0.032 | [6] -0.02 | [7] 0 | [8] -0.012 | [9] 0.008 | IRAK-1-4 Inhibitor I -0.001 | ibrutinib -0.046 | [10] -0.01 | ralimetinib -0.002 | [11] -0.011 | [12] -0.044 | [13] -0.026 | pinometostat 0.01 | [14] -0.014 | [15] 0.009

SDHA (UniProt P31040)
inactive: erlotinib 0.001 | [1] 0.009 | [2] 0.052 | [3] -0.002 | [4] -0.039 | [5] 0.018 | [6] 0.014 | [7] -0.004 | [8] 0.016 | [9] 0.042 | IRAK-1-4 Inhibitor I 0.002 | ibrutinib 0.017 | [10] 0.031 | ralimetinib -0.032 | [11] -0.027 | [12] 0.058 | [13] 0 | pinometostat -0.06 | [14] 0.013 | [15] -0.019

RTRAF (UniProt Q9Y224)
inactive: erlotinib -0.02 | [1] -0.021 | [2] -0.126 | [3] -0.075 | [4] 0.019 | [5] 0.026 | [6] -0.077 | [7] 0.01 | [8] 0.042 | [9] -0.077 | IRAK-1-4 Inhibitor I -0.01 | ibrutinib -0.021 | [10] 0.056 | ralimetinib 0 | [11] 0.004 | [12] -0.007 | [13] 0.081 | pinometostat 0.151 | [14] 0.017 | [15] -0.016

SCARB2 (UniProt Q14108)
inactive: erlotinib 0.007 | [1] 0.064 | [2] -0.047 | [3] 0.052 | [4] -0.059 | [5] 0.053 | [6] 0.032 | [7] 0.033 | [8] 0.004 | [9] 0.018 | IRAK-1-4 Inhibitor I 0.002 | ibrutinib 0.014 | [10] 0.084 | ralimetinib 0.012 | [11] 0.073 | [12] -0.021 | [13] -0.04 | pinometostat -0.004 | [14] 0.031 | [15] 0.013

SCAMP4 (UniProt Q969E2)
inactive: erlotinib 0.002 | [1] -0.028 | [2] 0.01 | [3] 0.018 | [4] 0.024 | [5] 0.017 | [6] 0.008 | [7] -0.089 | [8] 0.019 | [9] 0.142 | IRAK-1-4 Inhibitor I 0.034 | ibrutinib 0.039 | [10] 0.024 | ralimetinib -0.025 | [11] 0 | [12] 0.028 | [13] 0.043 | pinometostat -0.022 | [14] 0.027 | [15] 0.063

SART1 (UniProt O43290)
inactive: erlotinib -0.082 | [1] -0.161 | [2] -0.585 | [3] 0.021 | [4] -0.189 | [5] -0.006 | [6] -0.158 | [7] -0.047 | [8] -0.029 | [9] -0.114 | IRAK-1-4 Inhibitor I -0.265 | ibrutinib 0.033 | [10] 0.036 | ralimetinib 0.218 | [11] 0.043 | [12] -0.021 | [13] 0.118 | pinometostat 0.269 | [14] 0.049 | [15] -0.445

RUVBL2 (UniProt Q9Y230)
inactive: erlotinib 0 | [1] 0 | [2] 0.038 | [3] 0.007 | [4] -0.03 | [5] 0.024 | [6] 0.002 | [7] -0.011 | [8] -0.021 | [9] 0.065 | IRAK-1-4 Inhibitor I 0.003 | ibrutinib 0.015 | [10] 0.063 | ralimetinib 0.002 | [11] 0.024 | [12] 0.128 | [13] -0.021 | pinometostat -0.025 | [14] -0.025 | [15] -0.011

Taken from above (two entries):
SDHA (UniProt P31040)
inactive: erlotinib 0.001 | [1] 0.009 | [2] 0.052 | [3] -0.002 | [4] -0.039 | [5] 0.018 | [6] 0.014 | [7] -0.004 | [8] 0.016 | [9] 0.042 | IRAK-1-4 Inhibitor I 0.002 | ibrutinib 0.017 | [10] 0.031 | ralimetinib -0.032 | [11] -0.027 | [12] 0.058 | [13] 0 | pinometostat -0.06 | [14] 0.013 | [15] -0.019

RTRAF (UniProt Q9Y224)
inactive: erlotinib -0.02 | [1] -0.021 | [2] -0.126 | [3] -0.075 | [4] 0.019 | [5] 0.026 | [6] -0.077 | [7] 0.01 | [8] 0.042 | [9] -0.077 | IRAK-1-4 Inhibitor I -0.01 | ibrutinib -0.021 | [10] 0.056 | ralimetinib 0 | [11] 0.004 | [12] -0.007 | [13] 0.081 | pinometostat 0.151 | [14] 0.017 | [15] -0.016

Next entries:

SEC22B (UniProt O75396)
inactive: erlotinib -0.032 | [1] 0.059 | [2] 0.027 | [3] -0.034 | [4] -0.023 | [5] 0.015 | [6] 0.044 | [7] 0.076 | [8] -0.038 | [9] 0.005 | IRAK-1-4 Inhibitor I 0.007 | ibrutinib -0.038 | [10] -0.004 | ralimetinib 0.024 | [11] 0.027 | [12] 0.009 | [13] -0.054 | pinometostat -0.05 | [14] -0.052 | [15] 0.031

RTCA (UniProt O00442)
inactive: erlotinib 0.017 | [1] 0.031 | [2] 0.063 | [3] 0.025 | [4] 0.016 | [5] 0.014 | [6] 0.023 | [7] -0.013 | [8] 0.048 | [9] 0.031 | IRAK-1-4 Inhibitor I 0.013 | ibrutinib 0.034 | [10] -0.032 | ralimetinib -0.039 | [11] -0.106 | [12] -0.054 | [13] -0.014 | pinometostat -0.002 | [14] 0.058 | [15] 0.061

RSBN1 (UniProt Q5VWQ0)
inactive: erlotinib -0.098 | [1] -0.145 | [2] -0.392 | [3] -0.064 | [4] -0.068 | [5] 0.139 | [6] -0.154 | [7] -0.067 | [8] -0.001 | [9] -0.1 | IRAK-1-4 Inhibitor I -0.033 | ibrutinib 0.022 | [10] 0.21 | ralimetinib 0.062 | [11] 0.08 | [12] 0.238 | [13] 0.082 | pinometostat 0.374 | [14] 0.015 | [15] -0.329

SARNP (UniProt P82979)
inactive: erlotinib 0.008 | [1] -0.149 | [2] -0.026 | [3] 0 | [4] -0.01 | [5] 0.014 | [6] -0.162 | [7] -0.093 | [8] 0.062 | [9] -0.006 | IRAK-1-4 Inhibitor I 0.057 | ibrutinib 0.055 | [10] 0.021 | ralimetinib -0.095 | [11] 0.076 | [12] 0.17 | [13] 0.14 | pinometostat 0 | [14] 0.035 | [15] -0.005

SCP2 (UniProt P22307)
inactive: erlotinib 0.016 | [1] 0.022 | [2] 0.034 | [3] -0.011 | [4] 0.026 | [5] 0.016 | [6] -0.053 | [7] 0.019 | [8] 0.007 | [9] 0.018 | IRAK-1-4 Inhibitor I -0.007 | ibrutinib -0.019 | [10] -0.046 | ralimetinib -0.065 | [11] -0.018 | [12] 0.016 | [13] 0.003 | pinometostat -0.067 | [14] -0.009 | [15] 0.016

RSBN1L (UniProt Q6PCB5)
inactive: erlotinib -0.114 | [1] -0.297 | [2] -0.301 | [3] 0.02 | [4] -0.053 | [5] -0.036 | [6] -0.04 | [7] -0.074 | [8] 0.05 | [9] -0.037 | IRAK-1-4 Inhibitor I -0.092 | ibrutinib 0.074 | [10] 0.062 | ralimetinib 0.14 | [11] 0.057 | [12] 0.043 | [13] 0.107 | pinometostat 0.235 | [14] 0.007 | [15] -0.207

SCARB1 isoform 2 (UniProt Q8WTV0)
inactive: erlotinib 0.028 | [1] 0.02 | [2] 0.036 | [3] 0.005 | [4] 0.016 | [5] 0.058 | [6] 0.056 | [7] 0.012 | [8] 0.009 | [9] 0.041 | IRAK-1-4 Inhibitor I 0.027 | ibrutinib 0.043 | [10] -0.007 | ralimetinib -0.076 | [11] -0.056 | [12] 0.01 | [13] -0.037 | pinometostat -0.049 | [14] -0.004 | [15] 0.046

S100A6 (UniProt P06703)
inactive: erlotinib -0.064 | [1] 0.075 | [2] 0.085 | [3] 0.021 | [4] 0.049 | [5] 0.04 | [6] 0.03 | [7] 0 | [8] -0.042 | [9] -0.049 | IRAK-1-4 Inhibitor I -0.018 | ibrutinib 0.048 | [10] -0.027 | ralimetinib 0.042 | [11] -0.056 | [12] -0.006 | [13] 0.026 | pinometostat -0.023 | [14] -0.002 | [15] 0.108
